# Results reported in US12344663.
# By UniProt entry, the sequences of proteins in these tests, tags left out. Where a name states a change or a piece, a line headed by the entry shows the natural chain unless it says otherwise.
# UniProt P01024: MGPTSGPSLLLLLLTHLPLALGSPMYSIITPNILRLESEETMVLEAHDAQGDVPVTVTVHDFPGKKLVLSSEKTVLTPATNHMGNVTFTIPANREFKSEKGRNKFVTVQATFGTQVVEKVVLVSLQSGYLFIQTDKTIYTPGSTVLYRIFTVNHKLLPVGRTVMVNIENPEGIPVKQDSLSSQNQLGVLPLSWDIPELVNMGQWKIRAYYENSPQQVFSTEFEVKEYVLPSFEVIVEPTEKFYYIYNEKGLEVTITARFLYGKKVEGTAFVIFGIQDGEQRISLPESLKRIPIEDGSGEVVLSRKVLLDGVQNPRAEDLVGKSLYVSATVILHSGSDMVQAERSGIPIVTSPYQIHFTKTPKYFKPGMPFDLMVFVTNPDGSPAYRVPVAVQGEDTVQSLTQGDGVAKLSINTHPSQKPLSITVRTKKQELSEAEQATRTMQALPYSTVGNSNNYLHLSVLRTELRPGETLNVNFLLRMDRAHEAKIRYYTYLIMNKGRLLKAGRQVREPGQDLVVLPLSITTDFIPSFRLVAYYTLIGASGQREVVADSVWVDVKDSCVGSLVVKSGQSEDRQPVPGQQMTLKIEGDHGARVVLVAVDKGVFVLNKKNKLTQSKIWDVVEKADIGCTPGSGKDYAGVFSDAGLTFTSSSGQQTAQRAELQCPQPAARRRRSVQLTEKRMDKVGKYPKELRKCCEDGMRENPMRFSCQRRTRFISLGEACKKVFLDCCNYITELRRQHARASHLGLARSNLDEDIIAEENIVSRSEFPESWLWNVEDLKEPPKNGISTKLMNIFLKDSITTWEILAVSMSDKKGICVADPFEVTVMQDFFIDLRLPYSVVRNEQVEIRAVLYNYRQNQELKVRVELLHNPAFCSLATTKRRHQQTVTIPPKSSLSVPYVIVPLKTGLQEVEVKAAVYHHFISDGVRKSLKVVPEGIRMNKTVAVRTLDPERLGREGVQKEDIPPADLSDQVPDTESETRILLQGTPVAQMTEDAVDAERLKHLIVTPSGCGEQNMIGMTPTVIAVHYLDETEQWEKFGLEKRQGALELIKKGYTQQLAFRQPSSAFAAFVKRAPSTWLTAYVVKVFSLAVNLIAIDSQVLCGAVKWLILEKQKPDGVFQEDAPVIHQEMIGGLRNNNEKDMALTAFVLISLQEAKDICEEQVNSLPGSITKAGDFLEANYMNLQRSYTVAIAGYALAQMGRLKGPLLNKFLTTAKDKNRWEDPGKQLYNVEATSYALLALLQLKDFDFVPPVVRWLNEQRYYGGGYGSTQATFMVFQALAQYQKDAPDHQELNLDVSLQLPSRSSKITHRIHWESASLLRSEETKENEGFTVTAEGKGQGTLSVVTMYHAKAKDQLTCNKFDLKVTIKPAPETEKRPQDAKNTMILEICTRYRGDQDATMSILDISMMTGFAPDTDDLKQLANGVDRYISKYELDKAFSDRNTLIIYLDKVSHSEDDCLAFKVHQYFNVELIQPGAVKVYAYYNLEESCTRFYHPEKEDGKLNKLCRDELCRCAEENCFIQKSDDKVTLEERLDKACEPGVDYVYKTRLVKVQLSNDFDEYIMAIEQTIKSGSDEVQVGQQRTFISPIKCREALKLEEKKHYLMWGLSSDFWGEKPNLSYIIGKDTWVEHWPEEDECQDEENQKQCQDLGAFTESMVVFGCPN
# Results are given in words; binding and its absence hold for the method and conditions named. Some results given as binding are weak or reduced against the parent protein; the word gives no strength.
# Legend:
# Test in all cases: SPR
# [1] = target: human C3 P314L (human) (UniProt P01024)
# [2] = target: human complement C3 (human) (UniProt P01024)
# [3] = target: recombinant wild-type human C3 (human) (UniProt P01024)
binding [1],binding [2],binding [3],Binder
binds,binds,binds,Clone I (scFv) scFv: MQLVLTQSPSASASLGASVKLTCTLSSAHKTYTIDWYQQQPEKCPRYLMQLKSDGSYTKGSGIPDRFSGSSSGAERYLTISSLQSEDEADYYCGTEGVGGYVFGGGTKLTVLGGGGGSGGGGSGGGGSGGGGSQVQLVESGGGSVQPGRSLRLSCAASGFTFSNYAMNWVRQAPGKGLEWVAVISYDGSNKYYADSVKGRFTISRDNSKNTLYLQMNSLRAEDTASYYCARAVGYHHARLDPWGCGTSVTVSS
binds,binds,binds,Clone II (scFv) scFv: MQLVLTQSPSASASLGASVKLTCTLSSAHKTYTIDWYQQQPEKCPRYLMQLKSDGSYTKGSGIPDRFSGSSSGAERYLTISSLQSEDEADYYCGTEGVGGYVFGGGTKLTVLGGGGGSGGGGSGGGGSGGGGSQVQLVESGGGSVQPGRSLRLSCAASGFTFSNYAMNWVRQAPGKGLEWVAIINVGGGTNYADSVKGRFTISRDNSKNTLYLQMNSLRAEDTASYYCARAVGYHHARLDPWGCGTSVTVSS
binds,binds,binds,Clone III (scFv) scFv: MQLVLTQSPSASASLGASVKLTCTLSSAHKTYTIDWYQQQPEKCPRYLMQLKSEGSYTKGSGIPDRFSGSSSGAERYLTISSLQSEDEADYYCGTEGVGGYVFGGGTKLTVLGGGGGSGGGGSGGGGSGGGGSQVQLVESGGGSVQPGRSLRLSCAASGFTFSNYAMNWVRQAPGKGLEWVAIINVGGGTNYADSVKGRFTISRDNSKNTLYLQMNSLRAEDTASYYCARAVGYHHARLDPWGCGTSVTVSS
